From PubChem BioAssay AID248 (DTP/NCI, 2004)
The list shows only some results of the screen, not a fair sample: it gathers tests that were run many times, whatever their T/C, doses with no T/C, and many T/C values between a quarter and a half above the control. Other doses and runs of a compound stand elsewhere. T/C is the treated group as % of the vehicle group. Some doses have a count of surviving animals in place of a T/C: the source holds a T/C of zero for them, seemingly a mark for toxic or unscored doses. Some doses without a T/C left all or most animals alive at the check, yet need not have been tolerated: survival well below the control is almost never listed, so the zero probably covers shortened survival too. Survivors were counted at the toxicity check, usually on the fifth day, unless a day is given; later deaths do not show. Schedule codes are those of the source, read here as Q, the interval in days (D) or hours (H), X, the number of doses. Some schedule codes hold Z or #, which are not explained here. For survival time, the PubChem record calls one and a half times the control and up active, and a quarter to a half above the control has no call in these data; cut-offs in other NCI protocols can differ.

Tested on: L1210 leukemia ip in BDF1 mice, survival T/C
Assay: NCI In Vivo Anticancer Drug Screen. Data for tumor model L1210 Leukemia (intraperitoneal) in B6D2F1 (BDF1) mice
Conditions: T/C endpoint: mean survival time, higher T/C = longer survival
[1] = dose: 250.0 mg/kg/injection, schedule: Q01DX Z (ip), vehicle: carboxymethylcellulose (CMC)
[2] = dose: 500.0 mg/kg/injection, schedule: Q01DX Z (ip), vehicle: carboxymethylcellulose (CMC)
[3] = dose: 400.0 mg/kg/injection, schedule: Q01DX001 (ip), vehicle: saline with Tween-80

Brc1ncnc2nc[nH]c12
T/C (dose: 150.0 mg/kg/injection, schedule: Q01DX Z (ip), vehicle: carboxymethylcellulose (CMC)): 128 % of control
T/C [1]: 137 % of control
T/C (dose: 300.0 mg/kg/injection, schedule: Q01DX Z (ip), vehicle: carboxymethylcellulose (CMC)): 129 % of control
T/C [2]: 125 % of control
survivor count (dose: 600.0 mg/kg/injection, schedule: Q01DX Z (ip), vehicle: carboxymethylcellulose (CMC)): 3 of 6

CCOC=Nc1ccc(-n2cnc3c(Cl)ncnc32)cc1C
survivor count (dose: 200.0 mg/kg/injection, schedule: Q01DX001 (ip), vehicle: carboxymethylcellulose (CMC)): 2 of 4

CC(C)c1cccc2ccccc12
survivor count (dose: 400.0 mg/kg/injection, schedule: Q04DX003 (ip), vehicle: acetone): 5 of 6

O=C1c2cscc2Cc2ccsc21
survivor count [3]: 0 of 3

CCCCCCCCc1cc[n+](C2=C([O-])c3ccccc3C(=O)C2=O)cc1
survivor count (dose: 50.0 mg/kg/injection, schedule: Q01DX009 (ip), vehicle: saline): 0 of 6
survivor count (dose: 100.0 mg/kg/injection, schedule: Q01DX009 (ip), vehicle: saline): 0 of 6
survivor count (dose: 200.0 mg/kg/injection, schedule: Q01DX009 (ip), vehicle: saline): 0 of 6

Cc1nc2c(C(N)=O)nc(C)n2nc1C
survivor count (dose: 200.0 mg/kg/injection, schedule: Q04DX002 (ip), vehicle: saline with Tween-80): 6 of 6
survivor count (dose: 400.0 mg/kg/injection, schedule: Q04DX002 (ip), vehicle: saline with Tween-80): 6 of 6

CC(C(=O)C(Cc1ccccc1)c1ccccc1)C1CCC2C3C(OC=O)CC4CC(OC=O)CCC4(C)C3CC(OC=O)C12C (stereo not drawn)
survivor count (dose: 50.0 mg/kg/injection, schedule: Q01DX009 (ip), vehicle: saline with Tween-80): 3 of 3

O=NN(CCF)C(=O)Nc1c[nH]c(=O)[nH]c1=O
T/C (dose: 10.0 mg/kg/injection, schedule: Q01DX001 (ip), vehicle: carboxymethylcellulose (CMC)): 136 % of control
survivor count (dose: 30.0 mg/kg/injection, schedule: Q01DX001 (ip), vehicle: carboxymethylcellulose (CMC)): 1 of 6
survivor count (dose: 40.0 mg/kg/injection, schedule: Q01DX001 (ip), vehicle: carboxymethylcellulose (CMC)): 0 of 6
survivor count (dose: 60.0 mg/kg/injection, schedule: Q01DX001 (ip), vehicle: carboxymethylcellulose (CMC)): 0 of 6
survivor count (dose: 93.0 mg/kg/injection, schedule: Q01DX001 (ip), vehicle: carboxymethylcellulose (CMC)): 0 of 6
survivor count (dose: 187.0 mg/kg/injection, schedule: Q01DX001 (ip), vehicle: carboxymethylcellulose (CMC)): 0 of 6
survivor count (dose: 250.0 mg/kg/injection, schedule: Q01DX001 (ip), vehicle: carboxymethylcellulose (CMC)): 0 of 6
survivor count (dose: 375.0 mg/kg/injection, schedule: Q01DX001 (ip), vehicle: carboxymethylcellulose (CMC)): 0 of 6
survivor count (dose: 500.0 mg/kg/injection, schedule: Q01DX001 (ip), vehicle: carboxymethylcellulose (CMC)): 0 of 6
survivor count (dose: 750.0 mg/kg/injection, schedule: Q01DX001 (ip), vehicle: carboxymethylcellulose (CMC)): 0 of 6

[O-]/[N+](=N/O)c1ccc(Cl)cc1
survivor count (dose: 100.0 mg/kg/injection, schedule: Q01DX001 (ip), vehicle: saline with Tween-80): 3 of 6
survivor count (dose: 100.0 mg/kg/injection, schedule: Q01DX009 (ip), vehicle: saline with Tween-80): 0 of 6
survivor count (dose: 200.0 mg/kg/injection, schedule: Q01DX001 (ip), vehicle: saline with Tween-80): 0 of 6
survivor count [3]: 0 of 6

NC(=O)COc1ccc(Cl)cc1Cl
survivor count (dose: 400.0 mg/kg/injection, schedule: Q01DX009 (ip), vehicle: Klucel (hydroxypropylcellulose) (HPC)): 0 of 3
survivor count (dose: 400.0 mg/kg/injection, schedule: Q04DX002 (ip), vehicle: Klucel (hydroxypropylcellulose) (HPC)): 1 of 3

C=C(C)CC#N
survivor count (dose: 400.0 mg/kg/injection, schedule: Q04DX003 (ip), vehicle: saline): 5 of 6

O=[N+]([O-])C1CCCCC1O (stereo not drawn)
survivor count (dose: 75.0 mg/kg/injection, schedule: Q01DX001 (ip), vehicle: saline): 2 of 6
survivor count (dose: 150.0 mg/kg/injection, schedule: Q01DX001 (ip), vehicle: saline): 0 of 6
survivor count (dose: 300.0 mg/kg/injection, schedule: Q01DX001 (ip), vehicle: saline): 0 of 6

O=C(O)c1cccc(F)c1C(=O)c1ccc2ccccc2c1 (tested in a mixture with another compound)
survivor count (dose: 400.0 mg/kg/injection, schedule: Q04DX003 (ip), vehicle: Klucel (hydroxypropylcellulose) (HPC)): 0 of 6

O=C(NCCCCCCCCCNC(=O)Nc1ccc(C2=NCCN2)cc1)Nc1ccc(C2=NCCN2)cc1
survivor count [1]: 4 of 6
survivor count [2]: 0 of 6

O=C1C=C(S(=O)(=O)c2ccccc2)C(=O)c2ccccc21
survivor count (dose: 300.0 mg/kg/injection, schedule: Q01DX001 (ip), vehicle: other): 0 of 6
